Reference: PubChem BioAssay AID1053208 (Peter MacCallum Cancer Centre, 2014)
Test: 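Synthetic lethal interactions between gene loss and doxorubicin in osteosarcoma cells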 (primary screen). Cells: mouse osteosarcoma cells, early-passage culture from an engineered mouse model of fibroblastic bone tumour. Reagents: siRNA pool against mouse genes, 40 nM. Timing: about 120 h (48 h before drug, then 72 h with drug). Conditions: doxorubicin 100 nM for 72 h, roughly 30-40% inhibitory dose. Measurement: 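Luminescent ATP signal taken as viability with or without 100 nM doxorubicin for 72 h; mean of two wells set against non-targeting siRNA and turned into robust z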. Scale: viability z-score with doxorubicin: higher = more viable cells under doxorubicin; viability z-score without drug: higher = more viable cells with knock-down alone. Hit rule: 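a pool counts as active when its viability z-score with doxorubicin is -2 or below and its z-score without drug lies between -2 and 2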.
Here is an unselected part of about 17,000 reagents. 788 of them (4.7%) were called active. 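Calls rest on z-score classes alone; an extra cut-off of viability at most 70% of control was not applied to them.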 Further read-outs or replicates are left out here.

Or2v1 (olfactory receptor family 2 subfamily V member 1) → combined z-score class: no change with or without drug; viability z-score with doxorubicin: -0.34; viability z-score without drug: -0.17; Call: inactive
Galntl6 → combined z-score class: no change with or without drug; viability z-score with doxorubicin: 1.12; viability z-score without drug: 1.35; Call: inactive
Psmb11 (proteasome (prosome, macropain) subunit, beta type, 11) → combined z-score class: no change with or without drug; viability z-score with doxorubicin: 0.11; viability z-score without drug: 0.34; Call: inactive
B230220B15Rik (RIKEN cDNA B230220B15 gene) → combined z-score class: no change with or without drug; viability z-score with doxorubicin: -0.67; viability z-score without drug: 0.84; Call: inactive
Shkbp1 (Sh3kbp1 binding protein 1) → combined z-score class: no change with or without drug; viability z-score with doxorubicin: -0.9; viability z-score without drug: -0.51; Call: inactive
Tapbpl (TAP binding protein-like) → combined z-score class: no change with or without drug; viability z-score with doxorubicin: 0; viability z-score without drug: 0.84; Call: inactive
Nemp2 (nuclear envelope integral membrane protein 2) → combined z-score class: no change with or without drug; viability z-score with doxorubicin: 0.11; viability z-score without drug: 0.51; Call: inactive
Mphosph8 (M-phase phosphoprotein 8) → combined z-score class: high cell count without drug only; viability z-score with doxorubicin: 0.9; viability z-score without drug: 3.54; Call: inactive
Fubp1 (far upstream element (FUSE) binding protein 1) → combined z-score class: no change with or without drug; viability z-score with doxorubicin: -1.35; viability z-score without drug: 0; Call: inactive
Mageh1 (MAGE family member H1) → combined z-score class: high cell count without drug only; viability z-score with doxorubicin: 0.22; viability z-score without drug: 2.36; Call: inactive
Ankrd23 (ankyrin repeat domain 23) → combined z-score class: no change with or without drug; viability z-score with doxorubicin: 0.22; viability z-score without drug: -0.17; Call: inactive
Srsf19 (serine and arginine rich splicing factor 19) → combined z-score class: low cell count with doxorubicin only; viability z-score with doxorubicin: -2.02; viability z-score without drug: -0.51; Call: active
Cnp (2',3'-cyclic nucleotide 3' phosphodiesterase) → combined z-score class: no change with or without drug; viability z-score with doxorubicin: 1.01; viability z-score without drug: 1.69; Call: inactive
Bahcc1 (BAH domain and coiled-coil containing 1) → combined z-score class: low cell count without drug only; viability z-score with doxorubicin: 0.22; viability z-score without drug: -6.91; Call: inactive
Gatd1 (glutamine amidotransferase like class 1 domain containing 1) → combined z-score class: no change with or without drug; viability z-score with doxorubicin: -1.01; viability z-score without drug: -1.52; Call: inactive
Stk25 (serine/threonine kinase 25 (yeast)) → combined z-score class: no change with or without drug; viability z-score with doxorubicin: 0; viability z-score without drug: 0.67; Call: inactive
Ube2d3 (ubiquitin-conjugating enzyme E2D 3) → combined z-score class: no change with or without drug; viability z-score with doxorubicin: -0.22; viability z-score without drug: 0.51; Call: inactive
Fuca2 (fucosidase, alpha-L- 2, plasma) → combined z-score class: no change with or without drug; viability z-score with doxorubicin: -0.11; viability z-score without drug: -1.18; Call: inactive
Or52j3 (olfactory receptor family 52 subfamily J member 3) → combined z-score class: low cell count with and without drug; viability z-score with doxorubicin: -2.02; viability z-score without drug: -2.19; Call: inactive
